From patent US20180214442A1, “METHODS FOR ATTENUATING OR PREVENTING MU(μ)-OPIOID RECEPTOR MEDIATED TOLERANCE AND OPIOID-INDUCED […]” (The Board of Trustees of the Leland Stanford Junior …, priority 2017, published 2018)
Read-outs that look alike come from different tables or passages of the source.

Tested on: spinal microglia

Question: Which “microglial activation (CD11b density)” value (global MOR KO mice, twice daily escalating 10 to 40 mg/kg schedule) does the source give for `CN1CC[C@]23c4c5ccc(O)c4O[C@H]2[C@@H](O)C=C[C@H]3[C@H]1C5.O=S(=O)(O)O` [morphine, Morphine sulfate] here?
Answer: considerable microglial activation

Question: And the “microglial activation (CD11b density)” value (wild-type mice, chronic morphine, fixed 10 mg/kg or escalating 10 to 40 mg/kg)?
Answer: robust microglial activation
